Reference: paper PMC12638823
Results are given in words; binding and its absence hold for the method and conditions named. In cells and extracts the contact can be indirect. These calls come from enrichment with a bait or labelling near it, and not all partners need be listed.

Chains of the proteins cited; added tags and fusions are not shown.
UniProt Q9NYV6: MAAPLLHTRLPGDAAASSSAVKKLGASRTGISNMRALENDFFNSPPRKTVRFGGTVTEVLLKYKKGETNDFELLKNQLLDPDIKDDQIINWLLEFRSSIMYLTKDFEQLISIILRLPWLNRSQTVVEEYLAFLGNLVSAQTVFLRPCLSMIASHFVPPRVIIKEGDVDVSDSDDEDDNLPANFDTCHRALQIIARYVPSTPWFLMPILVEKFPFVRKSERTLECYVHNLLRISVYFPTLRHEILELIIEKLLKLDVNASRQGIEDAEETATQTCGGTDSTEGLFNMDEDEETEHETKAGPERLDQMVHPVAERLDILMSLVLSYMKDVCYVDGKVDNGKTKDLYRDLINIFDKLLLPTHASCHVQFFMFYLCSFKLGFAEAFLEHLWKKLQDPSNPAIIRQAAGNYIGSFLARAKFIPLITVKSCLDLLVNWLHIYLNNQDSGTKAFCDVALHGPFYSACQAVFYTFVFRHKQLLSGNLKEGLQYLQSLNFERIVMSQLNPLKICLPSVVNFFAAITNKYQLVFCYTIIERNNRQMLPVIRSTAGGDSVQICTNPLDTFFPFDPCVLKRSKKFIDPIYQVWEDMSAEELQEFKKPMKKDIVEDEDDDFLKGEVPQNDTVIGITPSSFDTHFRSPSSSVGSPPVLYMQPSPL
UniProt P11940: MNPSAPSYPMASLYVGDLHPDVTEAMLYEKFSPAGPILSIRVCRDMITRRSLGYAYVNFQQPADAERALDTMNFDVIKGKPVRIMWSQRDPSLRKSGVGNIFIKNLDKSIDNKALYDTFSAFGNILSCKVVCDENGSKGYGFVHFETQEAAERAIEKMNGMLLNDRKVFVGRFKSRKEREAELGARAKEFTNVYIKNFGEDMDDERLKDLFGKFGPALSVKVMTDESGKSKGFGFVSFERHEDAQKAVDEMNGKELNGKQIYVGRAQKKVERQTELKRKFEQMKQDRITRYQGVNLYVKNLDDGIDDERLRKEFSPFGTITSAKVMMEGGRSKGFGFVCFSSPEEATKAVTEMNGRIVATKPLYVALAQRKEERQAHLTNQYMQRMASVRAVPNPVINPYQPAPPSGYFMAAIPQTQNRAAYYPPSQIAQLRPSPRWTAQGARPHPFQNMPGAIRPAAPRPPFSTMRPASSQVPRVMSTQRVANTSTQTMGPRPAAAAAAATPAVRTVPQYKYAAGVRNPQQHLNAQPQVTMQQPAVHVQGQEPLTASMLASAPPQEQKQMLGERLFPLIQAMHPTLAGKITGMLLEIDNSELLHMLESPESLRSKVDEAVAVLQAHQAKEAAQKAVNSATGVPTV

B1: SAMD4A (endogenous, SK-OV-3 cells) (protein, UniProt Q9UPU9 1-718)
chain: MMFRDQVGVLAGWFKGWNECEQTVALLSLLKRVSQTQARFLQLCLEHSLADCAELHVLEREANSPGIINQWQQESKDKVISLLLTHLPLLKPGNLDAKVEYMKLLPKILAHSIEHNQHIEESRQLLSYALIHPATSLEDRSALAMWLNHLEDRTSTSFGGQNRGRSDSVDYGQTHYYHQRQNSDDKLNGWQNSRDSGICINASNWQDKSMGCENGHVPLYSSSSVPTTINTIGTSTSTILSGQAHHSPLKRSVSLTPPMNVPNQPLGHGWMSHEDLRARGPQCLPSDHAPLSPQSSVASSGSGGSEHLEDQTTARNTFQEEGSGMKDVPAWLKSLRLHKYAALFSQMTYEEMMALTECQLEAQNVTKGARHKIVISIQKLKERQNLLKSLERDIIEGGSLRIPLQELHQMILTPIKAYSSPSTTPEARRREPQAPRQPSLMGPESQSPDCKDGAAATGATATPSAGASGGLQPHQLSSCDGELAVAPLPEGDLPGQFTRVMGKVCTQLLVSRPDEENISSYLQLIDKCLIHEAFTETQKKRLLSWKQQVQKLFRSFPRKTLLDISGYRQQRNRGFGQSNSLPTAGSVGGGMGRRNPRQYQIPSRNVPSARLGLLGTSGFVSSNQRNTTATPTIMKQGRQNLWFANPGGSNSMPSRTHSSVQRTRSLPVHTSPQNMLMFQQPEFQLPVTEPDINNRLESLCLSMTEHALGDGVDRTSTI

Biological target: V5-tagged RRN3 (stably expressed in SK-OV-3 cells) (human) (UniProt Q9NYV6)
Test: affinity purification with mass spectrometry; anti-V5 immunoprecipitation from chromatin-associated proteins of SK-OV-3 cells stably expressing V5-RRN3 (empty vector as control); UHPLC-MS/MS

Molecule	binding
PABPC1 (endogenous, SK-OV-3 cells) (from UniProt P11940 1-636)	binds
B1	binds
